In US12486302B2, “Somatostatin receptor antagonist compounds and methods of using the same” (CDRD VENTURES INC., priority 2016, dated 2025):
Some results were stated once for a whole list of compounds, not compound by compound. Where a SMILES comes first, the peptide text is derived from it. Bridges are numbered along the chain shown (N, C = ends). [ ]: non-standard residue; d: D form. The star is where a group is joined. ξ: configuration not given here. dPhe(4-CONH2) = NC(=O)c1ccc(C[C@@H](N)C(=O)O)cc1; Phe(4-Cl) = N[C@@H](Cc1ccc(Cl)cc1)C(=O)O; ξPhe(4-Cl) = NC(Cc1ccc(Cl)cc1)C(=O)O; Butanoyl(3,3-Me2) = CC(C)(C)CC(=O)*; Lys(Me) = CNCCCC[C@H](N)C(=O)O; X4 = O=C(CS(=O)(=O)c1ccccc1)*; Succinamoyl = NC(=O)CCC(=O)*; Picolinoyl = O=C(c1ccccn1)*; ξY = NC(Cc1ccc(O)cc1)C(=O)O; 2Furoyl = O=C(c1ccco1)*; Hexanoyl = CCCCCC(=O)*; Bz = O=C(c1ccccc1)*; βAla = NCCC(=O)O

The chains behind the UniProt entries cited, without tags or fusion partners. Where a name states a change or a piece, a line headed by the entry shows the natural chain unless it says otherwise.
UniProt P30874: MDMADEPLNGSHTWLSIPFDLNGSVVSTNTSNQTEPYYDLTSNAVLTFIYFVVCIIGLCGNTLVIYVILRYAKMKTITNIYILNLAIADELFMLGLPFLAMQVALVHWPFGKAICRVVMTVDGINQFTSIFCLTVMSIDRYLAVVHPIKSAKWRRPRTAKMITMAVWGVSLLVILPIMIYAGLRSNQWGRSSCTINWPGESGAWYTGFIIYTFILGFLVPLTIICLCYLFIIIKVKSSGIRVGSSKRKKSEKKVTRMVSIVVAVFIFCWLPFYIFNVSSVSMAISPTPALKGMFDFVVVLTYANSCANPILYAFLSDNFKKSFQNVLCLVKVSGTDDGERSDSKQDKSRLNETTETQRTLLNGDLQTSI

Biological target: somatostatin type 2 (SSTR2) receptors (Homo sapiens, UniProt P30874)
Test: PathHunter β-Arrestin assay, antagonist mode, SSTR2
Type: cell-based
Method in brief: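 Cells co-expressing PK-tagged human receptor and EA-β-Arrestin were pre-incubated with compound, then challenged with agonist at EC80. β-Gal complementation read by chemiluminescence; % inhibition normalized to EC80 and vehicle controls at 10 concentrations (log 3 steps from 1 μM down to 5e-5 μM), fitted for IC50.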

Compound	antagonistic activity with respect to SSTR2
CNCCCC[C@@H]1NC(=O)[C@@H](Cc2ccc(C(N)=O)cc2)NC(=O)[C@H](Cc2ccc(O)cc2)NC(=O)[C@H](NC(=O)[C@@H](N)Cc2ccc(Cl)cc2)CSSC[C@@H](C(=O)NC(Cc2ccc(Cl)cc2)C(N)=O)NC(=O)[C@H]([C@@H](C)O)NC1=O (stereo partly drawn) [Compound 46, H-Cpa-cyclo[D-Cys-Tyr-D-Phe(4-carbamoyl)-Lys(N^ε-Me)-Thr-Cys]-D-Cpa-NH2] (H-[Phe(4-Cl)][dC]Y[dPhe(4-CONH2)][Lys(Me)]TC[ξPhe(4-Cl)]-NH2; disulfide 2-7)	exhibited antagonistic activity
CNCCCC[C@@H]1NC(=O)[C@@H](Cc2ccc(C(N)=O)cc2)NC(=O)[C@H](Cc2ccc(Cl)cc2)NC(=O)[C@H](NC(=O)[C@@H](N)Cc2ccc(Cl)cc2)CSSC[C@@H](C(=O)NC(Cc2ccc(Cl)cc2)C(N)=O)NC(=O)[C@H]([C@@H](C)O)NC1=O (stereo partly drawn) [Compound 47, H-Cpa-cyclo[D-Cys-Cpa-D-Phe(4-carbamoyl)-Lys(N^ε-Me)-Thr-Cys]-D-Cpa-NH2] (H-[Phe(4-Cl)][dC][Phe(4-Cl)][dPhe(4-CONH2)][Lys(Me)]TC[ξPhe(4-Cl)]-NH2; disulfide 2-7)	exhibited antagonistic activity
CNCCCC[C@@H]1NC(=O)[C@@H](Cc2ccc(C(N)=O)cc2)NC(=O)[C@H](Cc2ccc(Cl)cc2)NC(=O)[C@H](NC(=O)[C@@H](N)Cc2ccc(Cl)cc2)CSSC[C@@H](C(=O)NC(Cc2ccc(O)cc2)C(N)=O)NC(=O)[C@H]([C@@H](C)O)NC1=O (stereo partly drawn) [Compound 48, H-Cpa-cyclo[D-Cys-Cpa-D-Phe(4-carbamoyl)-Lys(N^ε-Me)-Thr-Cys]-D-Tyr-NH2] (H-[Phe(4-Cl)][dC][Phe(4-Cl)][dPhe(4-CONH2)][Lys(Me)]TC[ξY]-NH2; disulfide 2-7)	exhibited antagonistic activity
CNCCCC[C@@H]1NC(=O)[C@@H](Cc2ccc(C(N)=O)cc2)NC(=O)[C@H](Cc2ccc(O)cc2)NC(=O)[C@H](NC(=O)[C@H](Cc2ccc(Cl)cc2)NC(=O)CCN)CSSC[C@@H](C(=O)N[C@H](Cc2ccc(O)cc2)C(N)=O)NC(=O)[C@H]([C@@H](C)O)NC1=O [Compound 49, H-β-Ala-Cpa-cyclo[D-Cys-Tyr-D-Phe(4-carbamoyl)-Lys (Nε-Me)-Thr-Cys]-D-Tyr-NH2] (H-[βAla][Phe(4-Cl)][dC]Y[dPhe(4-CONH2)][Lys(Me)]TC[dY]-NH2; disulfide 3-8)	exhibited antagonistic activity
CNCCCC[C@@H]1NC(=O)[C@@H](Cc2ccc(C(N)=O)cc2)NC(=O)[C@H](Cc2ccc(O)cc2)NC(=O)[C@H](NC(=O)[C@H](Cc2ccc(Cl)cc2)NC(=O)CNC(=O)c2ccccc2)CSSC[C@@H](C(=O)N[C@H](Cc2ccc(O)cc2)C(N)=O)NC(=O)[C@H]([C@@H](C)O)NC1=O [Compound 50, Ph(CO)NHCH2(CO)-Cpa-cyclo[D-Cys-Tyr-D-Phe(4-carbamoyl)-Lys(N^ε-Me)-Thr-Cys]-D-Tyr-NH2] (Bz-G[Phe(4-Cl)][dC]Y[dPhe(4-CONH2)][Lys(Me)]TC[dY]-NH2; disulfide 3-8)	exhibited antagonistic activity
CNCCCC[C@@H]1NC(=O)[C@@H](Cc2ccc(C(N)=O)cc2)NC(=O)[C@H](Cc2ccc(O)cc2)NC(=O)[C@H](NC(=O)[C@H](Cc2ccc(Cl)cc2)NC(=O)CS(=O)(=O)c2ccccc2)CSSC[C@@H](C(=O)N[C@H](Cc2ccc(O)cc2)C(N)=O)NC(=O)[C@H]([C@@H](C)O)NC1=O [Compound 51, PhSO2CH2(CO)-Cpa-cyclo[D-Cys-Tyr-D-Phe(4-carbamoyl)-Lys(N^ε-Me)-Thr-Cys]-D-Tyr-NH2] (X4-[Phe(4-Cl)][dC]Y[dPhe(4-CONH2)][Lys(Me)]TC[dY]-NH2; disulfide 2-7)	exhibited antagonistic activity
CNCCCC[C@@H]1NC(=O)[C@@H](Cc2ccc(C(N)=O)cc2)NC(=O)[C@H](Cc2ccc(O)cc2)NC(=O)[C@H](NC(=O)[C@H](Cc2ccc(Cl)cc2)NC(=O)CC(C)(C)C)CSSC[C@@H](C(=O)N[C@H](Cc2ccc(O)cc2)C(N)=O)NC(=O)[C@H]([C@@H](C)O)NC1=O [Compound 52, t-BuCH2(CO)-Cpa-cyclo[D-Cys-Tyr-D-Phe(4-carbamoyl)-Lys(N^ε-Me)-Thr-Cys]-D-Tyr-NH2] ({Butanoyl(3,3-Me2)}-[Phe(4-Cl)][dC]Y[dPhe(4-CONH2)][Lys(Me)]TC[dY]-NH2; disulfide 2-7)	exhibited antagonistic activity
CNCCCC[C@@H]1NC(=O)[C@@H](Cc2ccc(C(N)=O)cc2)NC(=O)[C@H](Cc2ccc(O)cc2)NC(=O)[C@H](NC(=O)[C@H](Cc2ccc(Cl)cc2)NC(=O)c2ccccn2)CSSC[C@@H](C(=O)N[C@H](Cc2ccc(O)cc2)C(N)=O)NC(=O)[C@H]([C@@H](C)O)NC1=O [Compound 53, 2-Pyridyl(CO)-Cpa-cyclo[D-Cys-Tyr-D-Phe(4-carbamoyl)-Lys(N^ε-Me)-Thr-Cys]-D-Tyr-NH2] (Picolinoyl-[Phe(4-Cl)][dC]Y[dPhe(4-CONH2)][Lys(Me)]TC[dY]-NH2; disulfide 2-7)	exhibited antagonistic activity
CNCCCC[C@@H]1NC(=O)[C@@H](Cc2ccc(C(N)=O)cc2)NC(=O)[C@H](Cc2ccc(O)cc2)NC(=O)[C@H](NC(=O)[C@H](Cc2ccc(Cl)cc2)NC(=O)CCC(N)=O)CSSC[C@@H](C(=O)N[C@H](Cc2ccc(O)cc2)C(N)=O)NC(=O)[C@H]([C@@H](C)O)NC1=O [Compound 54, H2N(CO)(CH2)2(CO)-Cpa-cyclo[D-Cys-Tyr-D-Phe(4-carbamoyl)-Lys(N^ε-Me)-Thr-Cys]-D-Tyr-NH2] (Succinamoyl-[Phe(4-Cl)][dC]Y[dPhe(4-CONH2)][Lys(Me)]TC[dY]-NH2; disulfide 2-7)	exhibited antagonistic activity
CNCCCC[C@@H]1NC(=O)[C@@H](Cc2ccc(C(N)=O)cc2)NC(=O)[C@H](Cc2ccc(O)cc2)NC(=O)[C@H](NC(=O)[C@H](Cc2ccc(Cl)cc2)NC(=O)CNC(C)=O)CSSC[C@@H](C(=O)N[C@H](Cc2ccc(O)cc2)C(N)=O)NC(=O)[C@H]([C@@H](C)O)NC1=O [Compound 55, Ac-Gly-Cpa-cyclo[D-Cys-Tyr-D-Phe(4-carbamoyl)-Lys(N^ε-Me)-Thr-Cys]-D-Tyr-NH2] (Ac-G[Phe(4-Cl)][dC]Y[dPhe(4-CONH2)][Lys(Me)]TC[dY]-NH2; disulfide 3-8)	exhibited antagonistic activity
CCCCCC(=O)N[C@@H](Cc1ccc(Cl)cc1)C(=O)N[C@@H]1CSSC[C@@H](C(=O)N[C@H](Cc2ccc(O)cc2)C(N)=O)NC(=O)[C@H]([C@@H](C)O)NC(=O)[C@H](CCCCNC)NC(=O)[C@@H](Cc2ccc(C(N)=O)cc2)NC(=O)[C@H](Cc2ccc(O)cc2)NC1=O [Compound 56, CH3(CH2)4(CO)-Cpa-cyclo[D-Cys-Tyr-D-Phe(4-carbamoyl)-Lys(N^ε-Me)-Thr-Cys]-D-Tyr-NH2] (Hexanoyl-[Phe(4-Cl)][dC]Y[dPhe(4-CONH2)][Lys(Me)]TC[dY]-NH2; disulfide 2-7)	exhibited antagonistic activity
CNCCCC[C@@H]1NC(=O)[C@@H](Cc2ccc(C(N)=O)cc2)NC(=O)[C@H](Cc2ccc(O)cc2)NC(=O)[C@H](NC(=O)[C@H](Cc2ccc(Cl)cc2)NC(=O)c2ccco2)CSSC[C@@H](C(=O)N[C@H](Cc2ccc(O)cc2)C(N)=O)NC(=O)[C@H]([C@@H](C)O)NC1=O [Compound 57, (Furan-2-carboxy)-Cpa-cyclo[D-Cys-Tyr-D-Phe(4-carbamoyl)-Lys(N^ε-Me)-Thr-Cys]-D-Tyr-NH2] (2Furoyl-[Phe(4-Cl)][dC]Y[dPhe(4-CONH2)][Lys(Me)]TC[dY]-NH2; disulfide 2-7)	exhibited antagonistic activity
